Test results reported in the supplement of paper PMC12823440, “Inhibitors supercharge kinase turnover through native proteolytic circuits” (Nature, 2025).
The list shows a part of the results. The calls rarely recur for the same compound in another form.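 In K562 cells expressing nanoluciferase-fused kinases, luminescence was recorded at 4 h intervals between 2 and 18 h, normalized as percent of control with DMSO at 100% and a positive control at 0%. A significant (2 sigma) signal drop marks a time point as decreased. The authors' rule for a hit is not shown and takes in more than the number of time points.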

The chains behind the UniProt entries cited, without tags or fusion partners. Where a name states a change or a piece, a line headed by the entry shows the natural chain unless it says otherwise.
UniProt Q9UQM7, whole entry: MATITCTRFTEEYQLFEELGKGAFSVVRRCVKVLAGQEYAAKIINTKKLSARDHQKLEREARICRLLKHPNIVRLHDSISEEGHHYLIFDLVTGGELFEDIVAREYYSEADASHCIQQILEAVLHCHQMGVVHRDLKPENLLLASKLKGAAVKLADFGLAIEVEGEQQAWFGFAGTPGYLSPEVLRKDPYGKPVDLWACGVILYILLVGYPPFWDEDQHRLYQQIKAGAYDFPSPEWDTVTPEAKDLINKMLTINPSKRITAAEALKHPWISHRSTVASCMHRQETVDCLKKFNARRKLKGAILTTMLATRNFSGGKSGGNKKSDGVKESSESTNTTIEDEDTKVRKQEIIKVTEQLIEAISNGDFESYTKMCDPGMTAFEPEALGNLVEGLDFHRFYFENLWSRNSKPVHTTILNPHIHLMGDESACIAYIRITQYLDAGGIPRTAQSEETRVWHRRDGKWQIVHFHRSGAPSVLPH
UniProt Q13555: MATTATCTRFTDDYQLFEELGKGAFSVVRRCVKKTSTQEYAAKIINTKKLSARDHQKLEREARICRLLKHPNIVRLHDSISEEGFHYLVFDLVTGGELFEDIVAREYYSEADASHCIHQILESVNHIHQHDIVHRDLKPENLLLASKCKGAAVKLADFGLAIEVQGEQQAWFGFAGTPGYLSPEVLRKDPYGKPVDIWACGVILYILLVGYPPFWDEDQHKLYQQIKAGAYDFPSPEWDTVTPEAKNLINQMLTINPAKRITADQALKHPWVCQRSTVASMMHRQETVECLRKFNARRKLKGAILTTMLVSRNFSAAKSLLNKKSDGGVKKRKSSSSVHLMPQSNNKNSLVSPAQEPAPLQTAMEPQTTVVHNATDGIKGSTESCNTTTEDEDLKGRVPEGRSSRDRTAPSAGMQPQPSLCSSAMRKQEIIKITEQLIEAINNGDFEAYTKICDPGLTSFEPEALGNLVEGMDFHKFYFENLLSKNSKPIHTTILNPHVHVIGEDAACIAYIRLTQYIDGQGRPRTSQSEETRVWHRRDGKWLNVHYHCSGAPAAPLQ
UniProt Q15131: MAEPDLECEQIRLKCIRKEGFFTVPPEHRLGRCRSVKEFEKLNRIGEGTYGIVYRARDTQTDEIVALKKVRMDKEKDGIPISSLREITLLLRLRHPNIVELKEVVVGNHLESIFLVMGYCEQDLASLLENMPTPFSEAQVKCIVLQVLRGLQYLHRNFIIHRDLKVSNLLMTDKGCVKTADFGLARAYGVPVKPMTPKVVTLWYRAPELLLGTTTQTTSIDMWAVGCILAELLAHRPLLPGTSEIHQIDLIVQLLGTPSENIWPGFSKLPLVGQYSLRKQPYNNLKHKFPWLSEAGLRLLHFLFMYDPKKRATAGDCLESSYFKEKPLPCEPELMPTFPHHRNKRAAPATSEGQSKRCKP
UniProt Q00526: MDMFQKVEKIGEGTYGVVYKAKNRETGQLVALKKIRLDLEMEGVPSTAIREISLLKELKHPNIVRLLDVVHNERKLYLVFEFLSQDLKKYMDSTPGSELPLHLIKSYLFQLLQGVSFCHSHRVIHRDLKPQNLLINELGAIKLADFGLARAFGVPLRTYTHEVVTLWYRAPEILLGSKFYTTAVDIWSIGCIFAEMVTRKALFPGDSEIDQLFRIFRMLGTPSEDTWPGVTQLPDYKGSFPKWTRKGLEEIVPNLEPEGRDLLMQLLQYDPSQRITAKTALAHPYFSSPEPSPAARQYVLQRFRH
UniProt Q00535, whole entry, looked up: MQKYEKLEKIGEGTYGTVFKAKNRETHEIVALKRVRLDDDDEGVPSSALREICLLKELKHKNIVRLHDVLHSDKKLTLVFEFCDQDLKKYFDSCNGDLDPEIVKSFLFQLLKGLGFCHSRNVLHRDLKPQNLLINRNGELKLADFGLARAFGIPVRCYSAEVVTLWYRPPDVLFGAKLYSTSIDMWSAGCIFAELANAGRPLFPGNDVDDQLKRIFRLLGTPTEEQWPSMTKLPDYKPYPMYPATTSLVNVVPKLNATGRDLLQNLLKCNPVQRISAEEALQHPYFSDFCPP
UniProt Q00534, whole entry: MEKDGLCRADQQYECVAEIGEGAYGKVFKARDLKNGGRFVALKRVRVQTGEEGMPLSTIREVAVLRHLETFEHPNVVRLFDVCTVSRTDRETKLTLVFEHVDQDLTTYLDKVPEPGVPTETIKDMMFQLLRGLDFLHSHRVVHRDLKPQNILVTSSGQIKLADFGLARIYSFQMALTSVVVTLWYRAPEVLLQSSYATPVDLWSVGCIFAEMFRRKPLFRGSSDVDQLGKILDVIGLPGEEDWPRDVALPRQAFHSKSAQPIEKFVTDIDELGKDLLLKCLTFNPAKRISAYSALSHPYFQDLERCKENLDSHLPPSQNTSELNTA
UniProt P50613: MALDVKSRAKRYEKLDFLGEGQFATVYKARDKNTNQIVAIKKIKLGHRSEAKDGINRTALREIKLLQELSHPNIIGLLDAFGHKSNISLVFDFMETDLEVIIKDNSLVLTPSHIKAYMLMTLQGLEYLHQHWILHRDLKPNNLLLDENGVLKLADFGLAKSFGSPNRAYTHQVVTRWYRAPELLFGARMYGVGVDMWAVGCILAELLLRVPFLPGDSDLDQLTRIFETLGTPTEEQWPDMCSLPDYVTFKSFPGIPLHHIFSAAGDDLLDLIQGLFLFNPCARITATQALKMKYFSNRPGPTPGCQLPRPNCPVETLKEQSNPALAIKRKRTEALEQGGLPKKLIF
UniProt P50750, whole entry: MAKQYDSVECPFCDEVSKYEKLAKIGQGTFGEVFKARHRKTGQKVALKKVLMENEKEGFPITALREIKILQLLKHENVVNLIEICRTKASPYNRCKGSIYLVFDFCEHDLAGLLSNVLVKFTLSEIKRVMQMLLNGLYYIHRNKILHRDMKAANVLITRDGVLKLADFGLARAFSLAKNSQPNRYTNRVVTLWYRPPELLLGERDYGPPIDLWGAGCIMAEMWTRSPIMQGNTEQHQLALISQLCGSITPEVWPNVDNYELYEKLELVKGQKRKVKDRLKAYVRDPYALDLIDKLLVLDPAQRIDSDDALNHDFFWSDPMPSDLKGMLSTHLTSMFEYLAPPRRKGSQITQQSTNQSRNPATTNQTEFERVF
UniProt O96017, whole entry: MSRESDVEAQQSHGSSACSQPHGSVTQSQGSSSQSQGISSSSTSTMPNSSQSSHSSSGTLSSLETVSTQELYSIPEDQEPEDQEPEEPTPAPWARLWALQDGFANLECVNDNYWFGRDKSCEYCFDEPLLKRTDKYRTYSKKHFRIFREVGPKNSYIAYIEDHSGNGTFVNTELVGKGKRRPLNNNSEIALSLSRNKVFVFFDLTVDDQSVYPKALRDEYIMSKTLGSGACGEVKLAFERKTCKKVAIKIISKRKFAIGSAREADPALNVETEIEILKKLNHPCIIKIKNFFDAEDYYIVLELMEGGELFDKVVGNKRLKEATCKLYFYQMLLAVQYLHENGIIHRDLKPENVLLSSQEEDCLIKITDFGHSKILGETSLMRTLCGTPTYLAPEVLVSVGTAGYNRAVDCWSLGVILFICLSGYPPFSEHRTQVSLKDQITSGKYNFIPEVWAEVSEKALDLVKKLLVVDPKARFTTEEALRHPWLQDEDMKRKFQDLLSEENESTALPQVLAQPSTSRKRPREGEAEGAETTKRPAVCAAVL
UniProt P07333, whole entry: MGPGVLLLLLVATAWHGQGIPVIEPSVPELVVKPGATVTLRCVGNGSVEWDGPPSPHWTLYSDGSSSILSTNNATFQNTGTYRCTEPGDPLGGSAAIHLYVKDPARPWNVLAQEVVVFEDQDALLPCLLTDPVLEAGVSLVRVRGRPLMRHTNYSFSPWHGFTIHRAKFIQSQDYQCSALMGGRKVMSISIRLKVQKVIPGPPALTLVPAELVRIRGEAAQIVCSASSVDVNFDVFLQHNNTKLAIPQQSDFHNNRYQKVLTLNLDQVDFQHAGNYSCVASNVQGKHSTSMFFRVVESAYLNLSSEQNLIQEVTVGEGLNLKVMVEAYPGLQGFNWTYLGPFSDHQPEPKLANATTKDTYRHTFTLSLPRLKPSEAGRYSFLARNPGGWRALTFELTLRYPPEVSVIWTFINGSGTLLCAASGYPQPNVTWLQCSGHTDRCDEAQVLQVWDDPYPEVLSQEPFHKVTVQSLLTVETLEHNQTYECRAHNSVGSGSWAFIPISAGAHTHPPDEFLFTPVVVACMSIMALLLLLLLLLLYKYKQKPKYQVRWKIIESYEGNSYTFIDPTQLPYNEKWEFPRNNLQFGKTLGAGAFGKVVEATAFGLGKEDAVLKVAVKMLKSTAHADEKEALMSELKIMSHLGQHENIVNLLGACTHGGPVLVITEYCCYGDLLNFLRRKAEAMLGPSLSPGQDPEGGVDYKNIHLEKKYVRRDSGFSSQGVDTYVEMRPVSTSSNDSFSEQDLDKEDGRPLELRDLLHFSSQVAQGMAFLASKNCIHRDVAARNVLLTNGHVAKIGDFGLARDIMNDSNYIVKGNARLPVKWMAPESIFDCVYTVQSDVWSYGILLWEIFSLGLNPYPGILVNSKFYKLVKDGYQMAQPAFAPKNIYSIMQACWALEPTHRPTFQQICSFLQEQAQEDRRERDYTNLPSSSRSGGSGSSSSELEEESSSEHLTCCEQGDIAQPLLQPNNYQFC
UniProt P41240: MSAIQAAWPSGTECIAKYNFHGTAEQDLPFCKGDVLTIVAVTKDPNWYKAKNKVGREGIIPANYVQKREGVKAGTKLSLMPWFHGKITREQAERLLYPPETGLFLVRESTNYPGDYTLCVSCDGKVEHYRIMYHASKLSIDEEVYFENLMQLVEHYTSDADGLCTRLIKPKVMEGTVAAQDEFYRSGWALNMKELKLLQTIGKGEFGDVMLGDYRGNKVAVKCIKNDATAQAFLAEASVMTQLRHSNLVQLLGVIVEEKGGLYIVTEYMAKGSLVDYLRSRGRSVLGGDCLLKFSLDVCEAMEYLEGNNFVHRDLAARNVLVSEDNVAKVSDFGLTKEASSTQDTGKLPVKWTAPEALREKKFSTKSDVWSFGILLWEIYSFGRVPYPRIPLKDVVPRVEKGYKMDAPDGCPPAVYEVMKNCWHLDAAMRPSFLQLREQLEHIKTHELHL
UniProt P48729: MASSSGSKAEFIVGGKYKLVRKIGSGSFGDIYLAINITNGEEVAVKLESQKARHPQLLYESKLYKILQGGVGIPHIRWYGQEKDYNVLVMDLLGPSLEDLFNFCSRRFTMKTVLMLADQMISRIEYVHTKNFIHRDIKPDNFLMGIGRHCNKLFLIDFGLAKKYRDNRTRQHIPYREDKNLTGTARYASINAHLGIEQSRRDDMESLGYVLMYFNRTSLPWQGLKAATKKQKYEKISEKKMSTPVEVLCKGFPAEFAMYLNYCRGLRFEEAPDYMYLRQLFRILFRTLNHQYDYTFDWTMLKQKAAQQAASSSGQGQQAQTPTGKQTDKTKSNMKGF
UniProt P48730: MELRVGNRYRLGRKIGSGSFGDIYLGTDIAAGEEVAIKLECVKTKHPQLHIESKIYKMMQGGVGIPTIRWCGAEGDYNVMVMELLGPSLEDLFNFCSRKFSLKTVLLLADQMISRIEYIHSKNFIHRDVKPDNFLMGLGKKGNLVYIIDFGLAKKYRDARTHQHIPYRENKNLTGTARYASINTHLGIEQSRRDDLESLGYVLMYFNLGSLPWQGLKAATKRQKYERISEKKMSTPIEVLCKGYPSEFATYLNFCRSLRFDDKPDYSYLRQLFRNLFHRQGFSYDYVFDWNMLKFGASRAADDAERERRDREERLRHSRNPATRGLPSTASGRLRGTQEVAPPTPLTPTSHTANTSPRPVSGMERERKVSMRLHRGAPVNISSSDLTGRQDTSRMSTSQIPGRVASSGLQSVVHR
UniProt Q92630: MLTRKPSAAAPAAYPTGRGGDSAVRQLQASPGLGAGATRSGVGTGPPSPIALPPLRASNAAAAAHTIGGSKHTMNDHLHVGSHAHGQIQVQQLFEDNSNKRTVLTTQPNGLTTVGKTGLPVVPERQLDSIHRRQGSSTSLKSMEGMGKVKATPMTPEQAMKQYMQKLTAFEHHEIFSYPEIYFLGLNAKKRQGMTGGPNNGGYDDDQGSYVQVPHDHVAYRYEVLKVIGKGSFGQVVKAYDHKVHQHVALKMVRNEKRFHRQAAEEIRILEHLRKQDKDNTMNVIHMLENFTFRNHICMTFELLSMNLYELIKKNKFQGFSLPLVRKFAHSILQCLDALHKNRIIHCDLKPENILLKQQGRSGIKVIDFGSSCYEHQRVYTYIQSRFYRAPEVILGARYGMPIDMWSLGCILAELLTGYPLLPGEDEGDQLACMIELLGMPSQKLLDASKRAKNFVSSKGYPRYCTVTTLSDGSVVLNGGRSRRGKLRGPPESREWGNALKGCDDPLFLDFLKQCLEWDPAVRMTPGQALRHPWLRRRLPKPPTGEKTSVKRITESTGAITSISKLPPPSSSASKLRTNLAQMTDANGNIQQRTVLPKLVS

Assays:
Assay in all cases: kinase-Nluc reporter destabilization hit call (1 = scored as downregulated) (binary); higher = compound decreases kinase abundance
Conditions in all cases: K562; 2-18 h
[1] = tested on: BRAF_V600E
[2] = target: BTK (UniProt Q06187)
[3] = target: CAMK2A (UniProt Q9UQM7)
[4] = target: CAMK2G (UniProt Q13555)
[5] = target: CDK10 (UniProt Q15131)
[6] = target: CDK2 (UniProt P24941)
[7] = target: CDK3 (UniProt Q00526)
[8] = target: CDK4 (UniProt P11802)
[9] = target: CDK5 (UniProt Q00535)
[10] = target: CDK6 (UniProt Q00534)
[11] = target: CDK7 (UniProt P50613)
[12] = target: CDK9 (UniProt P50750)
[13] = target: CHEK2 (UniProt O96017)
[14] = target: CSF1R (UniProt P07333)
[15] = target: CSK (UniProt P41240)
[16] = target: CSNK1A1 (UniProt P48729)
[17] = target: CSNK1D (UniProt P48730)
[18] = target: DDR1 (UniProt Q08345)
[19] = target: DYRK1B (UniProt Q9Y463)
[20] = target: DYRK2 (UniProt Q92630)

| Compound | kinase-Nluc reporter destabilization hit call [1] | kinase-Nluc reporter destabilization hit call [2] | kinase-Nluc reporter destabilization hit call [3] | kinase-Nluc reporter destabilization hit call [4] | kinase-Nluc reporter destabilization hit call [5] | kinase-Nluc reporter destabilization hit call [6] | kinase-Nluc reporter destabilization hit call [7] | kinase-Nluc reporter destabilization hit call [8] | kinase-Nluc reporter destabilization hit call [9] | kinase-Nluc reporter destabilization hit call [10] | kinase-Nluc reporter destabilization hit call [11] | kinase-Nluc reporter destabilization hit call [12] | kinase-Nluc reporter destabilization hit call [13] | kinase-Nluc reporter destabilization hit call [14] | kinase-Nluc reporter destabilization hit call [15] | kinase-Nluc reporter destabilization hit call [16] | kinase-Nluc reporter destabilization hit call [17] | kinase-Nluc reporter destabilization hit call [18] | kinase-Nluc reporter destabilization hit call [19] | kinase-Nluc reporter destabilization hit call [20] |
| --- | --- | --- | --- | --- | --- | --- | --- | --- | --- | --- | --- | --- | --- | --- | --- | --- | --- | --- | --- | --- |
| Cc1ccc2c(Nc3cccc(OC(F)(F)F)c3)nccc2c1Nc1ncccc1-c1ncnc2[nH]cnc12 (10 µM) | inactive: 0 | inactive: 0 | inactive: 0 | inactive: 0 | inactive: 0 | inactive: 0 | inactive: 0 | inactive: 0 | inactive: 0 | inactive: 0 | inactive: 0 | inactive: 0 | inactive: 0 | inactive: 0 | inactive: 0 | inactive: 0 | inactive: 0 | inactive: 0 | inactive: 0 | inactive: 0 |
| Cc1cc(N2CCOCC2)cc2[nH]c(-c3c(NC[C@@H](O)c4cccc(Cl)c4)cc[nH]c3=O)nc12 (10 µM) | inactive: 0 | inactive: 0 | inactive: 0 | inactive: 0 | inactive: 0 | inactive: 0 | inactive: 0 | inactive: 0 | inactive: 0 | inactive: 0 | inactive: 0 | inactive: 0 | inactive: 0 | inactive: 0 | inactive: 0 | inactive: 0 | inactive: 0 | inactive: 0 | inactive: 0 | inactive: 0 |
| Nc1ncnc2c1c(-c1ccc(Oc3ccccc3)cc1)cn2C1CCCC1 (2.5 µM) | inactive: 0 | inactive: 0 | inactive: 0 | inactive: 0 | inactive: 0 | inactive: 0 | inactive: 0 | inactive: 0 | inactive: 0 | inactive: 0 | inactive: 0 | inactive: 0 | inactive: 0 | inactive: 0 | inactive: 0 | inactive: 0 | inactive: 0 | inactive: 0 | inactive: 0 | inactive: 0 |
| COc1cc(N2CCC(N)CC2)ccc1Nc1ncc(Cl)c(-c2c[nH]c3ccccc23)n1 (2.5 µM) | inactive: 0 | inactive: 0 | inactive: 0 | inactive: 0 | inactive: 0 | inactive: 0 | inactive: 0 | inactive: 0 | inactive: 0 | inactive: 0 | inactive: 0 | inactive: 0 | inactive: 0 | inactive: 0 | inactive: 0 | inactive: 0 | inactive: 0 | inactive: 0 | inactive: 0 | inactive: 0 |
| COc1c(CC=C(C)C)c(O)cc2oc(=O)c(-c3ccc(O)cc3O)cc12 [Glycycoumarin] (10 µM) | inactive: 0 | inactive: 0 | inactive: 0 | inactive: 0 | inactive: 0 | inactive: 0 | inactive: 0 | inactive: 0 | inactive: 0 | inactive: 0 | inactive: 0 | inactive: 0 | inactive: 0 | inactive: 0 | inactive: 0 | inactive: 0 | inactive: 0 | inactive: 0 | inactive: 0 | inactive: 0 |
| O=C(/C=C/c1ccc(O)c(O)c1)c1ccc(O)cc1O [Butein] (10 µM) | inactive: 0 | inactive: 0 | inactive: 0 | inactive: 0 | inactive: 0 | inactive: 0 | inactive: 0 | inactive: 0 | inactive: 0 | inactive: 0 | inactive: 0 | inactive: 0 | inactive: 0 | inactive: 0 | inactive: 0 | inactive: 0 | inactive: 0 | inactive: 0 | inactive: 0 | active: 1 |
| C=CC(=O)Nc1ccc2ncnc(Nc3cccc(Br)c3)c2c1 (10 µM) | inactive: 0 | inactive: 0 | inactive: 0 | inactive: 0 | inactive: 0 | inactive: 0 | inactive: 0 | inactive: 0 | inactive: 0 | inactive: 0 | inactive: 0 | inactive: 0 | inactive: 0 | inactive: 0 | inactive: 0 | inactive: 0 | inactive: 0 | inactive: 0 | inactive: 0 | inactive: 0 |
| COCc1c(-c2ccc(NC(=O)Nc3cc(C(F)(F)F)ccc3F)c(F)c2)c2c(N)ncnn2c1CN1CCOCC1 (2.5 µM) | inactive: 0 | inactive: 0 | inactive: 0 | inactive: 0 | inactive: 0 | inactive: 0 | inactive: 0 | inactive: 0 | inactive: 0 | inactive: 0 | inactive: 0 | inactive: 0 | inactive: 0 | inactive: 0 | inactive: 0 | inactive: 0 | inactive: 0 | inactive: 0 | inactive: 0 | inactive: 0 |
| COc1cc(OC)cc(N(CCNC(C)C)c2ccc3ncc(-c4cnn(C)c4)nc3c2)c1 [Erdafitinib] (2.5 µM) | inactive: 0 | inactive: 0 | inactive: 0 | inactive: 0 | inactive: 0 | inactive: 0 | inactive: 0 | inactive: 0 | inactive: 0 | inactive: 0 | inactive: 0 | inactive: 0 | inactive: 0 | inactive: 0 | inactive: 0 | inactive: 0 | inactive: 0 | inactive: 0 | inactive: 0 | inactive: 0 |
| CCOc1cc2ncc(C#N)c(Nc3ccc(OCc4ccccn4)c(Cl)c3)c2cc1NC(=O)/C=C/CN(C)C [Neratinib] (10 µM) | inactive: 0 | inactive: 0 | inactive: 0 | inactive: 0 | inactive: 0 | inactive: 0 | inactive: 0 | inactive: 0 | inactive: 0 | inactive: 0 | inactive: 0 | inactive: 0 | inactive: 0 | inactive: 0 | inactive: 0 | inactive: 0 | inactive: 0 | inactive: 0 | inactive: 0 | inactive: 0 |
| O=c1cc(N2CCOCC2)oc2c(-c3ccccc3)cccc12 (10 µM) | inactive: 0 | inactive: 0 | inactive: 0 | inactive: 0 | inactive: 0 | inactive: 0 | inactive: 0 | inactive: 0 | inactive: 0 | inactive: 0 | inactive: 0 | inactive: 0 | inactive: 0 | inactive: 0 | inactive: 0 | inactive: 0 | inactive: 0 | inactive: 0 | inactive: 0 | inactive: 0 |
| CN(C)C(=O)/C(C#N)=C/c1ccc(-c2nc3cnc4[nH]ccc4c3n2C2CCCCC2)o1 (10 µM) | inactive: 0 | inactive: 0 | inactive: 0 | inactive: 0 | inactive: 0 | inactive: 0 | inactive: 0 | inactive: 0 | inactive: 0 | inactive: 0 | inactive: 0 | inactive: 0 | inactive: 0 | inactive: 0 | inactive: 0 | inactive: 0 | inactive: 0 | – | inactive: 0 | inactive: 0 |
| CNC(=O)c1cccc(-c2ccc3c(N4CCOC[C@@H]4C)nc(N4CCOC[C@@H]4C)nc3n2)c1 [Vistusertib] (2.5 µM) | inactive: 0 | inactive: 0 | inactive: 0 | inactive: 0 | inactive: 0 | inactive: 0 | inactive: 0 | inactive: 0 | inactive: 0 | inactive: 0 | active: 1 | active: 1 | inactive: 0 | inactive: 0 | inactive: 0 | inactive: 0 | inactive: 0 | – | inactive: 0 | inactive: 0 |
| CCC(=O)N1CCN(c2ccc(-n3c(=O)ccc4cnc5ccc(-c6cnc7ccccc7c6)cc5c43)cc2C(F)(F)F)CC1 [Torin 1] (2 µM) | inactive: 0 | inactive: 0 | inactive: 0 | inactive: 0 | inactive: 0 | inactive: 0 | inactive: 0 | inactive: 0 | inactive: 0 | inactive: 0 | inactive: 0 | inactive: 0 | inactive: 0 | inactive: 0 | inactive: 0 | inactive: 0 | inactive: 0 | inactive: 0 | inactive: 0 | inactive: 0 |
| C/C=C(/C)C(=O)O[C@H]1Cc2cc3ccc(=O)oc3cc2OC1(C)C [Decursinol angelate] (10 µM) | inactive: 0 | inactive: 0 | inactive: 0 | inactive: 0 | inactive: 0 | inactive: 0 | inactive: 0 | inactive: 0 | inactive: 0 | inactive: 0 | inactive: 0 | inactive: 0 | inactive: 0 | inactive: 0 | inactive: 0 | inactive: 0 | inactive: 0 | inactive: 0 | inactive: 0 | inactive: 0 |
| CC(C)(C#N)c1ccc(N2C(=O)OCc3cnc4ccc(-c5cnc6ccccc6c5)cc4c32)cc1 (2.5 µM) | inactive: 0 | inactive: 0 | inactive: 0 | inactive: 0 | inactive: 0 | inactive: 0 | inactive: 0 | inactive: 0 | inactive: 0 | inactive: 0 | inactive: 0 | inactive: 0 | inactive: 0 | inactive: 0 | inactive: 0 | inactive: 0 | inactive: 0 | inactive: 0 | inactive: 0 | inactive: 0 |
| CC(C)CC(=O)Nc1n[nH]c2c1CN(C(=O)C1CCN(C)CC1)C2(C)C (2.5 µM) | inactive: 0 | inactive: 0 | inactive: 0 | inactive: 0 | inactive: 0 | inactive: 0 | inactive: 0 | inactive: 0 | inactive: 0 | inactive: 0 | inactive: 0 | inactive: 0 | inactive: 0 | inactive: 0 | inactive: 0 | inactive: 0 | inactive: 0 | inactive: 0 | inactive: 0 | inactive: 0 |
| CC(C)n1cnc2c(NCc3cccc(C(F)(F)F)c3)ncnc21 [Longdaysin] (10 µM) | inactive: 0 | inactive: 0 | inactive: 0 | inactive: 0 | inactive: 0 | inactive: 0 | inactive: 0 | inactive: 0 | inactive: 0 | inactive: 0 | inactive: 0 | inactive: 0 | inactive: 0 | inactive: 0 | inactive: 0 | inactive: 0 | inactive: 0 | inactive: 0 | inactive: 0 | inactive: 0 |

Single records, from the list above. Order of values: kinase-Nluc reporter destabilization hit call [1]	kinase-Nluc reporter destabilization hit call [2]	kinase-Nluc reporter destabilization hit call [3]	kinase-Nluc reporter destabilization hit call [4]	kinase-Nluc reporter destabilization hit call [5]	kinase-Nluc reporter destabilization hit call [6]	kinase-Nluc reporter destabilization hit call [7]	kinase-Nluc reporter destabilization hit call [8]	kinase-Nluc reporter destabilization hit call [9]	kinase-Nluc reporter destabilization hit call [10]	kinase-Nluc reporter destabilization hit call [11]	kinase-Nluc reporter destabilization hit call [12]	kinase-Nluc reporter destabilization hit call [13]	kinase-Nluc reporter destabilization hit call [14]	kinase-Nluc reporter destabilization hit call [15]	kinase-Nluc reporter destabilization hit call [16]	kinase-Nluc reporter destabilization hit call [17]	kinase-Nluc reporter destabilization hit call [18]	kinase-Nluc reporter destabilization hit call [19]	kinase-Nluc reporter destabilization hit call [20]
COc1cc(N2CCC(N)CC2)ccc1Nc1ncc(Cl)c(-c2c[nH]c3ccccc23)n1 (2.5 µM) is listed with inactive: 0	inactive: 0	inactive: 0	inactive: 0	inactive: 0	inactive: 0	inactive: 0	inactive: 0	inactive: 0	inactive: 0	inactive: 0	inactive: 0	inactive: 0	inactive: 0	inactive: 0	inactive: 0	inactive: 0	inactive: 0	inactive: 0	inactive: 0
Cc1cc(N2CCOCC2)cc2[nH]c(-c3c(NC[C@@H](O)c4cccc(Cl)c4)cc[nH]c3=O)nc12 (10 µM) is listed with inactive: 0	inactive: 0	inactive: 0	inactive: 0	inactive: 0	inactive: 0	inactive: 0	inactive: 0	inactive: 0	inactive: 0	inactive: 0	inactive: 0	inactive: 0	inactive: 0	inactive: 0	inactive: 0	inactive: 0	inactive: 0	inactive: 0	inactive: 0
